{
  "source": "patent US20200129495A1",
  "about": "(BioPharmX, Inc., priority 2018, published 2020)",
  "key": {"[1]": {"excerpt": "Addition of the solvent was repeated until the test material was completely dissolved, resulting in a visually clear solution."}, "[2]": {"system": "male C57BL/6J mice", "details": "2% (w/w) ebastine in ethanol/propylene glycol, topical 2.5 mg/cm^2 daily, 5 weeks; shaved patch"}, "[3]": {"assay": "in vivo", "details": "mouse, skin, topical, 2.5 mg/cm^2"}, "[4]": {"assay": "in vivo", "details": "mouse, plasma, topical, 2.5 mg/cm^2"}},
  "note": "Where two headings read alike, the source gives them in different places.",
  "data": [
    {"compound": "CC(C)(C)c1ccc(C(=O)CCCN2CCC(OC(c3ccccc3)c3ccccc3)CC2)cc1", "note": "[Ebastine, 1-[4-(1,1-dimethylethyl)phenyl]-4-[4-(diphenylmethoxy)-1-piperidinyl]-1-butanone]", "values": [
      {"measurement": "EBASTINE SOLUBILITY AT ROOM TEMP", "setting": "[1]; Diisopropyl Adipate", "result": 28.7, "unit": "mg/g"},
      {"measurement": "EBASTINE SOLUBILITY AT ROOM TEMP", "setting": "[1]; Isopropyl Myristate", "result": 21.8, "unit": "mg/g"},
      {"measurement": "hair length compared with baseline (non-patch area of non-treated mice)", "setting": "[2]", "result": "increased hair length"},
      {"measurement": "concentration at 5 weeks", "setting": "[3]", "result": 40400, "unit": "ng/g"},
      {"measurement": "concentration at 5 weeks", "setting": "[4]", "result": 2.18, "unit": "ng/mL"}
    ]}
  ]
}
